These are yes or no findings as the source states them, for the method shown. Some results given as binding are weak or reduced against the parent protein; the word gives no strength.
T1: mTERF4 (human (endogenous in HEK293)) (UniProt Q7Z6M4)
T1 sequence: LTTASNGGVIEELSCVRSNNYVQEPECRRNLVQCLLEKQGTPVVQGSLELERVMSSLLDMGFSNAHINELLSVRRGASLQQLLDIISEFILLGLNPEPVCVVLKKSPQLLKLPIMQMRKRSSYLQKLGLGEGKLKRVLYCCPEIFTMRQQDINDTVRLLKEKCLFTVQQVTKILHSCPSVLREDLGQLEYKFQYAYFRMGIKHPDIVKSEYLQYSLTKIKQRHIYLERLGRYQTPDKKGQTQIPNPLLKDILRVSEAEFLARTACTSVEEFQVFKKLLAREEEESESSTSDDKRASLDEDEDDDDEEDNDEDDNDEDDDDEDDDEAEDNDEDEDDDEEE

Chains of the proteins cited; added tags and fusions are not shown. Residues count along the entry.
UniProt Q96CB9, residues 26-384: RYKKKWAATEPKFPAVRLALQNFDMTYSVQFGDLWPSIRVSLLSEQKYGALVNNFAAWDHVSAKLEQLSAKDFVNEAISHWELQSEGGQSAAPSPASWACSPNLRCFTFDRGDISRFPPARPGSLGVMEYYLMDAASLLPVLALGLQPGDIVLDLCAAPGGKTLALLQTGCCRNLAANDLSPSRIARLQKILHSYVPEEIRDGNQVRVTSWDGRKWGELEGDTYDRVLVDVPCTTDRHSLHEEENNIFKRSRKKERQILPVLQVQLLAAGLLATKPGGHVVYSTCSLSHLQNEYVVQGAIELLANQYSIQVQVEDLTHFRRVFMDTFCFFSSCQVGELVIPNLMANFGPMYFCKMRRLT

T2: MRM3 (human (endogenous in HEK293)) (UniProt Q9HC36)
T2 sequence: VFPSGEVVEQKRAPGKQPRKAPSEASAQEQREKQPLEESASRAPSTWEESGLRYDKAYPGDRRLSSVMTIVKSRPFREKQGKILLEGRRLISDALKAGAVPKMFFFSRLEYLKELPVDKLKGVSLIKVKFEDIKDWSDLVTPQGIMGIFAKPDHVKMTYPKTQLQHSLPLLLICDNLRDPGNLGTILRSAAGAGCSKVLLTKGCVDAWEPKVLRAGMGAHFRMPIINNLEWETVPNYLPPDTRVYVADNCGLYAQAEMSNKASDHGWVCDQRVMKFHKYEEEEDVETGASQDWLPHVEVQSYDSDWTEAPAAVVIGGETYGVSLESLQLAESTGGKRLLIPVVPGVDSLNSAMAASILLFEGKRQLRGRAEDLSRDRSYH


Experiments:
[1] = target: T1, mTERF4 (human (endogenous in HEK293)); experiment: cryo-EM structure; native 39S pre-mitoribosomal particles isolated by anti-Flag affinity purification (MALSU1 or GTPBP10 bait; state 1 also with particles from a uL17 bait) from HEK293 cells; single-particle analysis, average resolutions between 3.1 Å and 5.7 Å; factors fitted as rigid-body homology models or crystal structures
[2] = target: T2, MRM3 (human (endogenous in HEK293)); experiment: as above

binding [1] | binding [2] | Molecule
binds |  | NSUN4 (from UniProt Q96CB9 26-384)
 | binds | DDX28 (protein, UniProt Q9NUL7 1-540) MALTRPVRLFSLVTRLLLAPRRGLTVRSPDEPLPVVRIPVALQRQLEQRQSRRRNLPRPVLVRPGPLLVSARRPELNQPARLTLGRWERAPLASQGWKSRRARRDHFSIERAQQEAPAVRKLSSKGSFADLGLEPRVLHALQEAAPEVVQPTTVQSSTIPSLLRGRHVVCAAETGSGKTLSYLLPLLQRLLGQPSLDSLPIPAPRGLVLVPSRELAQQVRAVAQPLGRSLGLLVRDLEGGHGMRRIRLQLSRQPSADVLVATPGALWKALKSRLISLEQLSFLVLDEADTLLDESFLELVDYILEKSHIAEGPADLEDPFNPKAQLVLVGATFPEGVGQLLNKVASPDAVTTITSSKLHCIMPHVKQTFLRLKGADKVAELVHILKHRDRAERTGPSGTVLVFCNSSSTVNWLGYILDDHKIQHLRLQGQMPALMRVGIFQSFQKSSRDILLCTDIASRGLDSTGVELVVNYDFPPTLQDYIHRAGRVGRVGSEVPGTVISFVTHPWDVSLVQKIELAARRRRSLPGLASSVKEPLPQAT

— article PMC8316566
